Experimental data as given in patent publication US20060199195A1.
Results are given in words; binding and its absence hold for the method and conditions named. For part of these data: In cells and extracts the contact can be indirect. Some entries that bind do so weakly or less than the wild type. Each block holds one substance with its values, some of them ahead of it.

The chains behind the UniProt entries cited, without tags or fusion partners. Where a name states a change or a piece, a line headed by the entry shows the natural chain unless it says otherwise. A line that says so, or that is headed by a name, gives the form on record, which may keep a tag or linker. Residues count along the entry.
βII-spectrin residues 1716 to 1997 fused to the GAL4 activation domain (pGAD10Sp) (Q01082, residues 1716-1997): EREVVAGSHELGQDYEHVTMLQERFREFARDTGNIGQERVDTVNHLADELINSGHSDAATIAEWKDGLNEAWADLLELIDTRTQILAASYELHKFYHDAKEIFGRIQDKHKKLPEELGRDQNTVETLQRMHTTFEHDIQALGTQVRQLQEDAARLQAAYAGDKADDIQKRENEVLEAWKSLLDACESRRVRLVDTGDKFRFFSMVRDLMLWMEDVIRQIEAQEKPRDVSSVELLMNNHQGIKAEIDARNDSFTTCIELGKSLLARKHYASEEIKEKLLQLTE
maltose binding protein fused with βII-spectrin residues 1779-1992 (MBPSp) (Q01082, residues 1779-1992): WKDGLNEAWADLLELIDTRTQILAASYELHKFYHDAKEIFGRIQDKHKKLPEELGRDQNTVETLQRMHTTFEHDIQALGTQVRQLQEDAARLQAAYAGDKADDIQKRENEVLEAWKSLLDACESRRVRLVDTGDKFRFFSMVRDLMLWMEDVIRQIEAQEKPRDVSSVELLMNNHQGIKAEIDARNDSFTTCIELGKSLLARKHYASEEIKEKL
UniProt P35240: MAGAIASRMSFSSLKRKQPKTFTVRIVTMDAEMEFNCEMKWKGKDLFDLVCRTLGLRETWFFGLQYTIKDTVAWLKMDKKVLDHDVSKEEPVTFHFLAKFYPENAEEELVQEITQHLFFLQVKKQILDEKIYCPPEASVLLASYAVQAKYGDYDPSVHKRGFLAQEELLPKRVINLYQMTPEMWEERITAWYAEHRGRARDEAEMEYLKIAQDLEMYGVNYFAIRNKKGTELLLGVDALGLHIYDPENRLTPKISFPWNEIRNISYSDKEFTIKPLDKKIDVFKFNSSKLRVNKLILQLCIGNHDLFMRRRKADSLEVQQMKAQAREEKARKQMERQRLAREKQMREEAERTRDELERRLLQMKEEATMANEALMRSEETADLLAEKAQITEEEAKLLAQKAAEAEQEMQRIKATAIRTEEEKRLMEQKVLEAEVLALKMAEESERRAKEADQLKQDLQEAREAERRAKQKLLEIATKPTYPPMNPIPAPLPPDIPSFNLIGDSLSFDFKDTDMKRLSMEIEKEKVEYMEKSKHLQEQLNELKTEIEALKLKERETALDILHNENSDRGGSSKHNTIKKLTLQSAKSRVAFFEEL

Key:
[1] = target: βII-spectrin residues 1716 to 1997 fused to the GAL4 activation domain (pGAD10Sp) (human) (UniProt Q01082); assay: yeast two-hybrid, β-galactosidase
[2] = target: maltose binding protein fused with βII-spectrin residues 1779-1992 (MBPSp) (UniProt Q01082); assay: pull-down on MBPSp-saturated amylose resin, Western blot
[3] = target: βII-spectrin residues 1716 to 1997 fused to the GAL4 activation domain (pGAD10Sp) (human) (UniProt Q01082); assay: yeast two-hybrid with deletion constructs

- binding [1]: binds
Substance: full-length schwannomin isoform 1 fused to the GAL4 binding domain (pGBT9NF2, residues 1-595) (from UniProt P35240 1-595)

- binding [2]: binds
Substance: glutathione-S-transferase fusion of the C-terminal domain of schwannomin isoform 1 (GSTNF2CL, schwannomin residues 469-595) (from UniProt P35240 469-595)

- binding [3]: binds
Substance: schwannomin isoform 1 C-terminal construct, GAL4 binding domain fusion (pGBT9NF2CL, Δ1-468) (from UniProt P35240 469-595)
